Measurements from ChEMBL document CHEMBL2163188, “Discovery of piragliatin--first glucokinase activator studied in type 2 diabetic patients” (J Med Chem, 2012).

Columns and labels:
[1] = Distribution coefficient, log D of the compound at pH 7.4; settings: octanol/water
[2] = Apparent permeability across human Caco2 cells; settings: Caco-2

For `CS(=O)(=O)c1ccc([C@@H](C[C@H]2CCC(=O)C2)C(=O)Nc2cnccn2)cc1Cl` [PIRAGLIATIN], the logD [1] was 1.45 and the Papp [2] was 1.6 ×10⁻⁶ cm/s.
